Experimental data: PubChem BioAssay AID2685 (National Center for Advancing Translational Sciences (NCATS), 2010)
In all, about 320,000 compounds went through this assay and about 2,100 (0.66%) were called active. Inconclusive means that the source gave no clear call. Such entries were picked first, then a sample of the others. Calls come from the whole dose curve; as a rule, active = well fitted inhibition curve with a large enough effect in the signal ratio, with a control signal flat (not every such curve was filed as active); inconclusive = small, poorly fitted or top-dose-only effect, or effect the other way, or a change in a side signal; inactive = flat fitted curve, though single readings scatter; the % refers to the signal ratio. Potencies of inconclusive entries are doubtful fits and often do not repeat. Where a SMILES comes first, the peptide text is derived from it. [ ]: non-standard residue; d: D form. ξ: configuration not given here. ξM = CSCCC(N)C(=O)O

assay: qHTS Assay for Lipid Storage Modulators in Drosophila S3 Cells; details: BODIPY lipid droplet fluorescence, 18-24 h, cells fed with added oleic acid; lipid storage change, negative = inhibition: at 46.1 µM (top of the series) unless noted
Method in brief: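 Laser-scanning cytometry quantifies lipid droplet accumulation (500–530 nm total intensity; droplet/cell object ratio) in oleic acid-fed (400 uM added) Drosophila S3 cells treated with a concentration series. 20 uM Triacsin C defined 100% inhibition.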
% is set by controls: 0 for no effect and ±100 for the full control effect; potency is the fitted concentration of half-maximal effect.

| SMILES | lipid storage change, negative = inhibition | Potency |
| --- | --- | --- |
| CCCn1cc(NC(=O)C2CC(c3cccc(Br)c3)=NO2)cn1 (stereo unspecified) | inconclusive: -29.4% | – |
| O=c1c(-c2ccccc2)cnc2n1CCS2 | inconclusive: -34.5% | – |
| COc1cccc(NC(=S)N2CCN(Cc3ccccc3)CC2)c1 | inconclusive: 13.4% | – |
| COc1ccc(-c2cc(C(F)(F)F)c3c(n2)sc2c(O)cc(=O)[nH]c23)c(OC)c1 | inconclusive: -56.9% | – |
| Cc1csc(CNC(=O)CC2C(=O)NCCN2Cc2ccc(F)cc2Cl)n1 (stereo unspecified) | inconclusive: -34.4% | – |
| COc1ccc2c(c1)[C@@H]1[C@H](CO2)[C@H](c2ccccc2)[C@]2(C)C(=O)Nc3ccc(C)cc3C(=O)N12 | inconclusive: -8.39% | – |
| COC1=C(Nc2ccc(OC)cc2)C(=O)c2ccccc2C1=O | – | inconclusive: 29.1 µM [cytotoxic, single point] |
| COc1ccc(CC(=O)N2CC3(C)CC2CC(C)(C)C3)cc1OC (stereo unspecified) | inconclusive: 8.54% | – |
| O=C(O)CCc1ccc(-c2cccs2)n1CCC(=O)O | inconclusive: -199% | – |
| Cc1ccccc1OCC(=O)NCCC(=O)O | – | inconclusive: 0.0366 µM [falling, full curve, poor fit] |
| O=C(NCCC1=CCCCC1)C1CCN(S(=O)(=O)c2cccc3nonc23)CC1 | inconclusive: 88.2% | – |
| Cc1ccc(NC(=O)COC(=O)C2CSC3(C)CCC(=O)N23)c(C)c1 (stereo unspecified) | – | inconclusive: 6.51 µM [falling, partial curve, poor fit] |
| COc1ccccc1N1CCN(C(=O)C2CCC(Cn3c(=S)[nH]c4ccccc4c3=O)CC2)CC1 (stereo unspecified) | inconclusive: 28.3% | – |
| CC(=O)c1ccc(NC(=O)C(C)Sc2nnnn2C)cc1 (stereo unspecified) | inconclusive: 9.92% | – |
| Cc1ccc(C)c(N2CCN(C(=O)C3CCN(S(=O)(=O)c4c(C)noc4C)CC3)CC2)c1 | inconclusive: -12.4% | – |
| Nc1nc2n(n1)C(c1ccco1)CC(c1ccc(Cl)c(Cl)c1)N2 (stereo unspecified) | inconclusive: 13.3% | – |
| O=C(Cn1cnnn1)OCC(=O)c1ccc(Cl)s1 | inconclusive: 12.5% | – |
| Cc1ccc(NS(=O)(=O)c2ccc3c(c2)NC(=O)C(C)C(=O)N3)cc1C (stereo unspecified) | inconclusive: -35.9% | – |
| CCOC(=O)N1CCN(Cc2ccc(O)c3ncccc23)CC1 | inconclusive: -14.5% | – |
| O=C(Nc1cccnc1)c1ccc(Cl)c(S(=O)(=O)N2CCCCCC2)c1 | inconclusive: 180% | – |
| O=C(CCC(=O)Nc1ccccc1)NNC(=O)c1ccccc1Cl | inconclusive: -19.4% | – |
| Cc1cc(C(=O)NC(C)CCc2ccccc2)ccc1[N+](=O)[O-] (stereo unspecified) | inconclusive: 6.82% | – |
| CCN(CC)S(=O)(=O)c1ccc(C)c(NC(=O)Cc2ccc(S(=O)(=O)N3CCOCC3)s2)c1 | inconclusive: -19.9% | – |
| O=S(=O)(NC12CC3CC(CC(C3)C1)C2)c1ccc(F)cc1 | – | inconclusive: 6.51 µM [falling, single point] |
| Cc1ccccc1C(=O)NC(=S)NCCC1=CCCCC1 | inconclusive: -1.32% | – |
| COc1ccc(S(=O)(=O)c2c(O)c3ccc(C(=O)Nc4ccccc4)cc3[nH]c2=O)cc1 | inactive | – |

| SMILES | lipid storage change, negative = inhibition | Potency |
| --- | --- | --- |
| COc1ccc(C(CNC(=O)c2ccc(-c3ccccc3)cc2)N(C)C)cc1OC (stereo unspecified) | – | inconclusive: 29.1 µM [falling, single point] |
| Cc1nn(C)cc1CN(C)C(=O)c1sc2cccc(Cl)c2c1Cl | inconclusive: 17.3% | – |
| Cc1c(N=C2SC(CC(=O)Nc3ccccc3)C(=O)N2CCN2CCOCC2)c(=O)n(-c2ccccc2)n1C (stereo unspecified) | – | inconclusive: 5.17 µM [activator, single point] |
| CSCCC(NC(=O)c1ccco1)C(=O)N1CCC(C(N)=O)CC1 (stereo unspecified) | – | inconclusive: 6.51 µM [cytotoxic, partial curve, poor fit] |
| Cc1cc(=O)oc2cc(Oc3ncccc3[N+](=O)[O-])ccc12 | inactive | – |
| CCCCN(C(=O)c1ccc(-n2nc(C)cc2C)cc1)c1c(N)n(CCC)c(=O)[nH]c1=O | inconclusive: -1.4% | – |
| Cc1ccc(O)c(C=Nc2cc(C)ccc2O)c1 | inconclusive: 21.6% | – |
| N#Cc1nc(Cc2ccccc2)oc1NCCCn1ccnc1 | – | inconclusive: 7.31 µM [falling, partial curve] |
| N#CCC(=O)N/N=C\c1cccc(OC/C=C/c2ccccc2)c1 | – | inconclusive: 6.51 µM [activator, single point] |
| CC(=O)c1cccc(NC(=O)CCc2nnc3ccc(N4CCN(C)CC4)nn23)c1 | inconclusive: -10.1% | – |
| COc1ccc(NC(=O)c2cccnc2NCCc2ccccc2)cc1 | – | inconclusive: 0.0731 µM [activator, full curve, poor fit] |
| CCOc1cc(C2C3=C(CCCC3=O)NC3=C2C(=O)CCC3)ccc1OCCO | – | inconclusive: 29.1 µM [activator, single point] |
| COc1cc(-c2nnc(NC(=O)CS(=O)(=O)c3ccc(F)cc3)o2)cc(OC)c1OC | inconclusive: -12.2% | – |
| O=C(Cn1nc(C(=O)O)c2ccccc2c1=O)NCCC1=CCCCC1 | – | inconclusive: 9.2 µM [falling, partial curve] |
| O=C(NCCS(=O)(=O)NCc1ccc2c(c1)OCO2)c1ccccc1 | inconclusive: 35.8% | – |
| Cc1ccc(C2(C)NC(=O)N(CC(=O)N3CCN(S(=O)(=O)c4cccc(F)c4)CC3)C2=O)cc1 (stereo unspecified) | inconclusive: 24.3% | – |
| CC(C)(C)c1nnc2sc(SCCN3C(=O)c4ccccc4C3=O)nn2c1=O | inconclusive: -35.4% | – |
| O=C(Oc1c(Br)cc([N+](=O)[O-])cc1Br)c1cccnc1 | – | inconclusive: 18.4 µM [falling, partial curve, poor fit] |
| Cc1c(C(=O)NCCc2ccccc2)oc2ccccc12 | inconclusive: 214% | – |
| C=CCNc1nnc(Cl)c2ccccc12 | inconclusive: -3.74% | – |
| NC(=O)Cn1nc([N+](=O)[O-])nc1Oc1ccccc1F | inconclusive: 12.8% | – |
| CCOc1ccc(C(=O)CCC(=O)NC(C)C(=O)OC)cc1 (stereo unspecified) | inconclusive: 5.75% | – |
| O=C(C1CCCN(S(=O)(=O)c2cc(Cl)ccc2Cl)C1)N1CCCCCC1 (stereo unspecified) | inconclusive: -25.4% | – |
| CS(=O)(=O)c1ccc2nc(NC(=O)C3CCCCC3)sc2c1 | inconclusive: -21% | – |
| CCOc1cccc(N(C(=O)c2ccco2)C(C(=O)NC2CCCC2)c2cccnc2)c1 (stereo unspecified) | inconclusive: 285% | – |
| O=C(COC(=O)/C=C/c1ccccc1Cl)NCc1ccco1 | inconclusive: -17.8% | – |

Complete entries, quoted from the list. Order of values: lipid storage change, negative = inhibition	Potency
`O=C(COC(=O)/C=C/c1ccccc1Cl)NCc1ccco1` in the list: inconclusive: -17.8%	–
`Cc1ccc(O)c(C=Nc2cc(C)ccc2O)c1` in the list: inconclusive: 21.6%	–
`N#Cc1nc(Cc2ccccc2)oc1NCCCn1ccnc1` in the list: –	inconclusive: 7.31 µM [falling, partial curve]
`NC(=O)Cn1nc([N+](=O)[O-])nc1Oc1ccccc1F` in the list: inconclusive: 12.8%	–

(continued)

| SMILES | lipid storage change, negative = inhibition | Potency |
| --- | --- | --- |
| CN(CCc1ccccn1)C(=O)CC1C(=O)NCCN1Cc1cccc(F)c1 (stereo unspecified) | – | inconclusive: 0.411 µM [falling, full curve, poor fit] |
| C#CCOCCOCCOCCNc1nc(N2CCN(C(=O)[C@H](CCC(=O)O)n3cc(C(N)[C@H](C)CC)nn3)CC2)nc(N2CCN(C(=O)[C@H](CCC(=O)O)n3cc(C(N)[C@H](C)CC)nn3)CC2)n1 (stereo partly specified) | inactive | – |
| COCC(=O)Nc1c(C(=O)Nc2ccc3c(c2)OCO3)oc2ccccc12 | – | inconclusive: 29.1 µM [falling, single point] |
| CC(=O)C1=C(O)C(=O)N(c2ccc(O)cc2)C1c1ccc(F)cc1 (stereo unspecified) | inconclusive: -16.4% | – |
| COc1cccc(NC(=O)C(OC(=O)c2ccc([N+](=O)[O-])o2)c2ccccc2)c1 (stereo unspecified) | inconclusive: -46.6% | – |
| CCn1c(C)nc([N+](=O)[O-])c1Sc1ccc(F)cc1 | inconclusive: -26.1% | – |
| O=S(=O)(c1ccc2oc3ccc(S(=O)(=O)N4CCCCC4)cc3c2c1)N1CCCCC1 | inconclusive: 15.8% | – |
| Cc1nnc(NC(=O)c2c(F)c(F)c(F)c(F)c2F)s1 | inconclusive: -4.44% | – |
| CCCn1cnc2c(oc3ccccc32)c1=O | inconclusive: 31.7% | – |
| Cc1ccc(/C=N/n2c(C)nc3ccccc3c2=O)o1 | inconclusive: -59.7% | – |
| COc1ccc(C2CC(=O)c3cc(OC)c(OC)cc32)cc1OC (stereo unspecified) | inconclusive: -5.38% | – |
| CCOc1ccc(NC(=O)CSc2nnc(C)n2CC2CCCO2)cc1 (stereo unspecified) | – | inconclusive: 1.64 µM [activator, partial curve] |
| CC(=O)Nc1cccc(Oc2ccc(-c3noc(C)n3)cc2)c1 | – | inconclusive: 5.8 µM [activator, partial curve] |
| COc1cc(C(=O)N2CCN(S(=O)(=O)c3ccc(F)cc3)CC2)cc(OC)c1OC | – | inconclusive: 3.66 µM [activator, partial curve] |
| COc1ccc(C(=O)N(C)Cc2ccccn2)cc1OC1CCN(C(C)C)CC1 | inconclusive: 12% | – |
| CCOc1nc(N2CCCCC2)nc(-n2cc(-c3ccccc3)nn2)n1 | inconclusive: -17.4% | – |
| CC1CCc2c(sc(NC(=O)c3c([N+](=O)[O-])cnn3C)c2C(N)=O)C1 (stereo unspecified) | – | inconclusive: 29.1 µM [activator, single point] |
| CC(C)CN(C(=O)COC(=O)c1nc(Cl)ccc1Cl)C1CCS(=O)(=O)C1 (stereo unspecified) | inconclusive: 20.5% | – |
| CCOC(=O)N1CCN(C(=O)c2ccc(Cn3c(=S)[nH]c4ccc(Br)cc4c3=O)cc2)CC1 | – | inconclusive: 0.82 µM [falling, full curve] |
| CCOC(=O)c1c(N=CN(C)C)c2cc([N+](=O)[O-])cnc2n1C | inconclusive: 0.894% | – |
| COC(=O)CNC(=O)C(CCSC)NC(C)=O (stereo unspecified) (Ac-[ξM]-Gly-OMe) | inconclusive: -26.8% | – |
| C[n+]1ccccc1/C=C/c1ccc(F)c(F)c1 | inconclusive: -0.958% | – |
| COCCCn1c(-c2ccccc2)nc2ccccc2c1=O | inconclusive: 12.7% | – |
| Cc1cccc(NC(=O)CN(C)S(=O)(=O)c2ccc(-c3ccc(=O)[nH]n3)s2)c1C | inconclusive: 30.4% | – |
